{"source": "paper PMC10604407", "biological_target": "T1, 3HA-PREB (human prolactin regulatory element binding protein) (human) (UniProt Q9HCU5)", "T1 sequence": "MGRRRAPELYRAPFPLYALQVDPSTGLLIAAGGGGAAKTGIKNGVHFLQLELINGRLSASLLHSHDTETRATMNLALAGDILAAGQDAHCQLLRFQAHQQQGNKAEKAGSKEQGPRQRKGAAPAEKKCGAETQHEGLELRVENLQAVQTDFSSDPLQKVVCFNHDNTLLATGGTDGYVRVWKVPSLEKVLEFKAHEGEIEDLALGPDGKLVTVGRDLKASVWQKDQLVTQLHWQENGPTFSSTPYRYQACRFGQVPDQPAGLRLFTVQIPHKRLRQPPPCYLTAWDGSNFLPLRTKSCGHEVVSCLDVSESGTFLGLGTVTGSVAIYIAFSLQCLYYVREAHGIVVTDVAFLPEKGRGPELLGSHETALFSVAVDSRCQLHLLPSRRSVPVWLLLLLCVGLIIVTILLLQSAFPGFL", "assay": "co-IP; HEK293T cells co-transfected, 48 h; lysis buffer 50 mM Tris-HCl pH 8.0, 150 mM NaCl, 1% NP-40; lysates with antibodies 3 h, Protein A-agarose 4 °C 3 h, six washes; in Fig. 6B precipitation with HA antibodies, blots with HA and Flag antibodies", "note": "Results are given in words; binding and its absence hold for the method and conditions named. In cells and extracts the contact can be indirect. Binding calls can cover weak binding; strength is not graded here."}
{"substance": "PFV Tas transcriptional activation domain (prototype foamy virus (PFV)) (domain or fragment)", "values": [{"measurement": "binding", "value": "binds"}]}
{"substance": "PFV Tas DNA-binding domain (prototype foamy virus (PFV)) (domain or fragment)", "values": [{"measurement": "binding", "value": "binds"}]}
